Experimental data: PubChem BioAssay AID1259308 (NCATS, 2017)

Purpose: 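Candidate targets for better recombinant protein yield in mammalian cells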 (primary screen)
Cells: human HEK293 embryonic kidney cells stably expressing firefly luciferase (HEK-CMV-Luc2-Hygro)
Reagent: single siRNA against human genes, 0.8 pmol siRNA per well
Time to read-out: 72 h
Read-out: 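Luciferase light (ONE-Glo) measured on one replicate plate set and viability (CellTiter-Glo) on the other, scaled to a negative control siRNA, with robust z-scores and luciferase per cell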
Reading the numbers: total luciferase, z-score and total luciferase, % of control: higher = more reporter protein produced; luciferase per cell, z-score: higher = more reporter output per viable cell; viable cells, % of control: higher = more viable cells
Hit rule: 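Active when the median/MAD z-score for overall luciferase is greater than 3; a gene was taken forward for validation with new siRNAs if at least two of its three siRNAs passed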
Calls: active = raised luciferase; inactive = no rise
Here is one part, drawn at random, of about 59,000 reagents tested. About 1,510 of them (2.6%) count as active. 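Calls use total luciferase alone and ignore viability, so some active siRNAs may act by altering cell number.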 Reagents against one gene are numbered here.

Target gene | siRNA no. | total luciferase, z-score | total luciferase, % of control | luciferase per cell, z-score | viable cells, % of control | Outcome
TMEM143 (transmembrane protein 143) | 1 | -0.522 | 71.5 | -0.995 | 104 | inactive
TMEM143 (transmembrane protein 143) | 2 | -1.37 | 54.6 | -2.19 | 109 | inactive
TMEM143 (transmembrane protein 143) | 3 | 1.83 | 118 | 1.6 | 86.7 | inactive
ASIC4 (acid sensing ion channel subunit family member 4) | 1 | -0.368 | 74.6 | -0.373 | 91.9 | inactive
ASIC4 (acid sensing ion channel subunit family member 4) | 2 | -0.79 | 66.2 | -0.907 | 93.9 | inactive
ASIC4 (acid sensing ion channel subunit family member 4) | 3 | 1.94 | 121 | 1.1 | 101 | inactive
NUP50 (nucleoporin 50) | 1 | -2.3 | 36.2 | -2.36 | 75.3 | inactive
NUP50 (nucleoporin 50) | 2 | -0.275 | 76.4 | -0.3 | 92.4 | inactive
NUP50 (nucleoporin 50) | 3 | -1.41 | 53.8 | -0.37 | 66.3 | inactive
ILKAP (ILK associated serine/threonine phosphatase) | 1 | 0.495 | 91.7 | -0.281 | 110 | inactive
ILKAP (ILK associated serine/threonine phosphatase) | 2 | 1.2 | 106 | 2 | 69.9 | inactive
ILKAP (ILK associated serine/threonine phosphatase) | 3 | -1.06 | 60.8 | -1.13 | 91.6 | inactive
KRTAP5-7 (keratin associated protein 5-7) | 1 | 0.326 | 88.4 | 1.25 | 71 | inactive
KRTAP5-7 (keratin associated protein 5-7) | 2 | -0.518 | 71.6 | -0.771 | 98 | inactive
KRTAP5-7 (keratin associated protein 5-7) | 3 | -0.309 | 75.7 | -0.93 | 108 | inactive
CEP43 (centrosomal protein 43) | 1 | -0.661 | 68.7 | 0.942 | 60 | inactive
CEP43 (centrosomal protein 43) | 2 | 0.0718 | 83.3 | -0.191 | 97.9 | inactive
CEP43 (centrosomal protein 43) | 3 | 2.12 | 124 | 0.672 | 116 | inactive
HMX2 (H6 family homeobox 2) | 1 | 0.308 | 88 | 0.522 | 85.7 | inactive
HMX2 (H6 family homeobox 2) | 2 | -1.22 | 57.6 | -0.617 | 75.7 | inactive
HMX2 (H6 family homeobox 2) | 3 | 1.15 | 105 | 1.07 | 88.2 | inactive
SBSN (suprabasin) | 1 | 0.113 | 84.1 | 0.133 | 90.8 | inactive
SBSN (suprabasin) | 2 | 0.69 | 95.6 | 0.1 | 104 | inactive
SBSN (suprabasin) | 3 | 0.745 | 96.7 | 0.994 | 83.2 | inactive

A portion of the results above, for reference:
Target gene | siRNA no. | total luciferase, z-score | total luciferase, % of control | luciferase per cell, z-score | viable cells, % of control | Outcome
TMEM143 (transmembrane protein 143) | 1 | -0.522 | 71.5 | -0.995 | 104 | inactive
TMEM143 (transmembrane protein 143) | 2 | -1.37 | 54.6 | -2.19 | 109 | inactive
TMEM143 (transmembrane protein 143) | 3 | 1.83 | 118 | 1.6 | 86.7 | inactive
ASIC4 (acid sensing ion channel subunit family member 4) | 1 | -0.368 | 74.6 | -0.373 | 91.9 | inactive
ASIC4 (acid sensing ion channel subunit family member 4) | 2 | -0.79 | 66.2 | -0.907 | 93.9 | inactive
ASIC4 (acid sensing ion channel subunit family member 4) | 3 | 1.94 | 121 | 1.1 | 101 | inactive
NUP50 (nucleoporin 50) | 1 | -2.3 | 36.2 | -2.36 | 75.3 | inactive
NUP50 (nucleoporin 50) | 2 | -0.275 | 76.4 | -0.3 | 92.4 | inactive
NUP50 (nucleoporin 50) | 3 | -1.41 | 53.8 | -0.37 | 66.3 | inactive

More records:
Target gene | siRNA no. | total luciferase, z-score | total luciferase, % of control | luciferase per cell, z-score | viable cells, % of control | Outcome
FBXL16 (F-box and leucine rich repeat protein 16) | 1 | 0.128 | 84.4 | 0.0793 | 92.4 | inactive
FBXL16 (F-box and leucine rich repeat protein 16) | 2 | 1.99 | 121 | 2.17 | 76.5 | inactive
FBXL16 (F-box and leucine rich repeat protein 16) | 3 | 0.729 | 96.4 | 0.353 | 98.1 | inactive
ADGRL3 (adhesion G protein-coupled receptor L3) | 1 | 0.134 | 84.6 | 0.564 | 81.4 | inactive
ADGRL3 (adhesion G protein-coupled receptor L3) | 2 | -0.194 | 78 | -0.0462 | 88.3 | inactive
ADGRL3 (adhesion G protein-coupled receptor L3) | 3 | 1.55 | 113 | 0.739 | 104 | inactive
FAM220A (family with sequence similarity 220 member A) | 1 | -0.308 | 75.8 | -0.052 | 85.8 | inactive
FAM220A (family with sequence similarity 220 member A) | 2 | -0.674 | 68.5 | -0.836 | 95.4 | inactive
FAM220A (family with sequence similarity 220 member A) | 3 | 0.429 | 90.4 | -0.0287 | 102 | inactive
CTNND2 (catenin delta 2) | 1 | -0.925 | 63.5 | -1.6 | 108 | inactive
CTNND2 (catenin delta 2) | 2 | -0.482 | 72.3 | -0.699 | 97.1 | inactive
CTNND2 (catenin delta 2) | 3 | -1.58 | 50.5 | -1.29 | 79.2 | inactive
ASIP (agouti signaling protein) | 1 | -2.65 | 29.1 | -2.61 | 64.6 | inactive
ASIP (agouti signaling protein) | 2 | -0.0429 | 81 | -0.371 | 99.9 | inactive
ASIP (agouti signaling protein) | 3 | 1.6 | 114 | 2.81 | 60.6 | inactive
SNX18 (sorting nexin 18) | 1 | 1.96 | 121 | 1.82 | 83.6 | inactive
SNX18 (sorting nexin 18) | 2 | -1.3 | 56.1 | -1.83 | 101 | inactive
SNX18 (sorting nexin 18) | 3 | 0.255 | 87 | 0.242 | 91.2 | inactive
OR5K1 (olfactory receptor family 5 subfamily K member 1) | 1 | 0.833 | 98.4 | 0.426 | 98.3 | inactive
OR5K1 (olfactory receptor family 5 subfamily K member 1) | 2 | -0.323 | 75.5 | -0.488 | 95.9 | inactive
OR5K1 (olfactory receptor family 5 subfamily K member 1) | 3 | 3.67 | 155 | 2.88 | 81 | active
TMEM132A (transmembrane protein 132A) | 1 | 2.22 | 126 | 2.83 | 66.8 | inactive
TMEM132A (transmembrane protein 132A) | 2 | -0.181 | 78.3 | 1.93 | 52.6 | inactive
TMEM132A (transmembrane protein 132A) | 3 | -0.512 | 71.7 | -0.274 | 86.1 | inactive
FERD3L (Fer3 like bHLH transcription factor) | 1 | 0.33 | 88.5 | 0.872 | 78.6 | inactive
FERD3L (Fer3 like bHLH transcription factor) | 2 | -0.179 | 78.3 | -0.412 | 97.5 | inactive
FERD3L (Fer3 like bHLH transcription factor) | 3 | 2.94 | 140 | 1.93 | 94.5 | inactive
TFDP1P2 (TFDP1 pseudogene 2) | 1 | 0.538 | 92.6 | 0.898 | 81.7 | inactive
TFDP1P2 (TFDP1 pseudogene 2) | 2 | -2.07 | 40.7 | -2.56 | 89.1 | inactive
TFDP1P2 (TFDP1 pseudogene 2) | 3 | -0.847 | 65 | -0.858 | 91.1 | inactive
YAP1 (Yes1 associated transcriptional regulator) | 1 | -0.547 | 71 | -0.693 | 95.2 | inactive
YAP1 (Yes1 associated transcriptional regulator) | 2 | 0.875 | 99.3 | 0.652 | 93.5 | inactive
YAP1 (Yes1 associated transcriptional regulator) | 3 | 0.235 | 86.6 | 0.287 | 89.7 | inactive
